The assay can be described thus: qHTS Assay for Modulators of Lamin A Splicing. As to conditions: HeLa LMNA splicing GFP/RFP minigene ratio, 48 h. Put shortly: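 S3 HeLa cells stably expressing lamin A-EGFP splicing minigene plus DsRed2, 600 cells/well, 48 h compound exposure at 37C. Laser-scanning cytometry; analysed as GFP (500-530 nm)/RFP (575-640 nm) total intensity ratio; 0.5% DMSO vehicle.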
A general note: In qHTS, concentration-response curves come from the screen itself.

Setting [1] is: measured here: RFP viability control channel.
[2] abbreviates: measured here: GFP splicing reporter channel.

Each structure is given as a SMILES string. Some of the results follow. These are further read-outs of the screen, such as a control signal, another cell line or another target. No call is given for them. Compounds called inactive in the main read-out are mostly missing here. The note in brackets gives the kind of curve behind each potency; many fits are weak.

Usually AC50 stands for the concentration at which the activity in the assay is half-maximal.

Take `CC(C)CNC(=O)CSc1nnc(-c2cccc(S(=O)(=O)N3CCCCC3)c2)o1`: the AC50 under setting [1] is 2.82 µM [rising, full curve, poor fit].

Turning to `Cc1cnc(CNc2ncnc3ccc(-c4ccccc4C(F)(F)F)cc23)cn1`, the AC50 under setting [1] was 10 µM [falling, partial curve].

On to `CC1c2ccccc2SC(CCCN(C)C)c2ccccc21` (centres undefined), for which, under setting [2], the AC50 was 11.2 µM [rising, single point]. In the case of `Cc1cc(Oc2ccc(C)c(Cl)c2)nc(SCC(=O)c2ccccc2)n1`, under setting [1], the AC50 was 35.5 µM [rising, single point]. As for `Cc1ccc(CNS(=O)(=O)c2cc(C(=O)Nc3cccc(C(F)(F)F)c3)ccc2F)cc1`, the concentration at half-maximal activity (AC50) is 35.5 µM [falling, single point] under setting [2] and 28.2 µM [falling, single point] under setting [1]. `COCCNC(=S)N1CCN(Cc2cccc(OC)c2)CC1`: the AC50 is 0.447 µM [falling, full curve, poor fit] under setting [2] and 0.355 µM [falling, full curve, poor fit] under setting [1].

As for `O=C(CSc1n[nH]c(=O)[nH]c1=O)NC1CC1`, under setting [1], the AC50 is 8.91 µM [falling, full curve, poor fit].

For `CC(C)(Oc1ccc(Cl)cc1)C(=O)O`, the AC50 under setting [2] was 35.5 µM [falling, single point]. As to `C/C(N)=C(/C#N)C(=O)CSc1nnnn1-c1ccc(C)cc1`, the AC50 is 35.5 µM [rising, single point] under setting [2] and 35.5 µM [rising, single point] under setting [1].

`Cc1nc2c(C(=O)NCCc3ccccc3)cnn2c(C)c1Cc1c(F)cccc1Cl`: the AC50 under setting [2] is 35.5 µM [falling, single point] and the AC50 under setting [1] is 12.6 µM [falling, single point].

Turning to `Cc1cccc(C(=O)N[C@H](C(=O)Nc2nnc(C3CC3)s2)C(C)C)c1`, under setting [1], the AC50 is 3.98 µM [rising, full curve]. Regarding `O=C(CSc1nnc(-c2cccnc2)s1)Nc1ccnc2ccccc12`, the AC50 by setting is: under setting [2], 2 µM [rising, full curve, poor fit]; under setting [1], 3.98 µM [rising, partial curve]. As for `COc1cccc(/C=N/NC(=O)c2cc3c(OC)cccc3[nH]2)c1O`, the half-maximal activity concentration (AC50) under setting [1] is 11.2 µM [rising, partial curve]. As to `COc1ccc(NC(C)C(=O)N/N=C/c2ccccc2OCc2cccc(Br)c2)cc1` (centres undefined), the concentration at half-maximal activity (AC50) reads like this: under setting [2], 17.8 µM [rising, single point]; under setting [1], 15.8 µM [rising, single point].

Regarding `CCCCn1nnnc1SCC(=O)c1ccc(C)c(C)c1`, under setting [1], the AC50 is 1.26 µM [rising, partial curve, poor fit].

Take `O=C(Nc1cccnc1)c1cccnc1`: under setting [1], the AC50 was 35.5 µM [rising, single point]. For `CCCCn1c(NC(=S)Nc2ccccc2)nc2ccccc21`, the AC50 by setting is: under setting [2], 35.5 µM [falling, single point]; under setting [1], 35.5 µM [falling, single point]. With `COc1ccccc1/C=C/C(=O)c1ccc(Cl)cc1`, the AC50 was 28.2 µM [falling, single point] under setting [2] and 25.1 µM [falling, partial curve] under setting [1]. Regarding `Cc1ccc(C(=O)CC(Nc2ccc(F)cc2)c2ccccc2)cc1` (centres undefined), under setting [1], the AC50 was 35.5 µM [rising, single point]. In the case of `COc1ccccc1Cn1ccn(Cc2c(F)cccc2Cl)c(=O)c1=O`, the concentration at half-maximal activity (AC50) by setting is: under setting [2], 15.8 µM [rising, partial curve]; under setting [1], 12.6 µM [rising, single point].

On to `Cc1ccc(C(=O)N2CCN(c3ccc(C(F)(F)F)cn3)CC2)c(C)c1`, for which the half-maximal activity concentration (AC50) under setting [1] was 15.8 µM [rising, partial curve]. On to `Cc1ccc(C(=O)Nc2nc(C)c(C(=O)Nc3ccc4c(c3)CCC4)s2)cc1`, for which, under setting [2], the AC50 was 11.2 µM [falling, partial curve]. `COc1cc(OC)cc(C(=O)NCCN2C(=O)S/C(=C\c3cccs3)C2=O)c1`: under setting [2], the half-maximal activity concentration (AC50) was 7.94 µM [falling, partial curve]. `COc1ccc(C(=O)NC(=S)N2CCN(c3ccc([N+](=O)[O-])cc3)CC2)cc1`: the AC50 was 10 µM [rising, partial curve] under setting [2] and 35.5 µM [rising, partial curve] under setting [1]. Turning to `COc1cccc(-c2ccc3ncnc(NCc4ccc(OC)cc4OC)c3c2)c1`, under setting [2], the AC50 is 10 µM [falling, partial curve, poor fit]. Consider `Cc1nn(Cc2ccc(F)cc2Cl)c(C)c1[N+](=O)[O-]`, for which the AC50 runs as follows: under setting [2], 0.00794 µM [falling, full curve]; under setting [1], 0.178 µM [falling, full curve, poor fit]. With `O=C(Nc1nc(SCc2ccc(F)cc2)ns1)c1ccco1`, the AC50 under setting [2] is 14.1 µM [rising, single point] and the AC50 under setting [1] was 17.8 µM [rising, single point].

As for `CC(C)(C)c1ccc(/C=N/NC(=S)NCc2ccccc2)cc1`, the AC50 under setting [1] was 3.98 µM [rising, full curve, poor fit].

With `Cn1nc([N+](=O)[O-])nc1Sc1nnc(-c2ccccc2)o1`, the AC50 runs as follows: under setting [2], 7.94 µM [falling, partial curve]; under setting [1], 14.1 µM [falling, single point].

As for `Cc1cc2c3c(c1)C(C)(c1ccccc1)CC(C)(C)N3C(=O)C21C(C#N)=C(N)OC2=C1C(=O)CC(C)(C)C2` (centres undefined), the AC50 under setting [2] was 20 µM [falling, single point].

Consider `Cc1ccc(C(=O)/C=C/c2ccc(Br)cc2)o1`, for which the AC50 under setting [2] was 2.82 µM [falling, single point] and the half-maximal activity concentration (AC50) under setting [1] was 17.8 µM [falling, single point]. On to `CCOC(=O)C1=C(CNCc2ccc(C)cc2)NC(=O)NC1c1ccc(OC)cc1` (centres undefined), for which the AC50 under setting [1] is 10 µM [rising, partial curve, poor fit]. `CCC(C)/C(C)=N/NC(=O)c1ccc(CSc2nc3ccccc3s2)cc1` (centres undefined): the half-maximal activity concentration (AC50) under setting [2] was 11.2 µM [rising, partial curve] and the AC50 under setting [1] was 35.5 µM [rising, single point]. Take `COc1ccccc1/C=C/C(=O)OCC(=O)Nc1cc(C(F)(F)F)ccc1N1CCOCC1`: the AC50 runs as follows: under setting [2], 12.6 µM [rising, single point]; under setting [1], 12.6 µM [rising, partial curve]. Take `COc1ccc(C2=NOC(C(=O)NCc3ccccc3)C2)cc1` (centres undefined): the AC50 is 3.98 µM [falling, full curve] under setting [2] and 3.55 µM [falling, full curve] under setting [1]. On to `Cc1sc2cc3c(c(C(=O)c4ccccc4)[n+]2c1C)-c1cccc2cccc-3c12`, for which the AC50 under setting [2] was 1.58 µM [rising, full curve] and the AC50 under setting [1] is 7.94 µM [rising, partial curve]. With `N#CCSc1nnc(COc2ccc3ccccc3c2)o1`, the AC50 under setting [1] is 10 µM [rising, partial curve, poor fit].

`Cc1cccc2sc(NC(=O)c3cc(S(=O)(=O)N(C)C)ccc3N3CCCC3)nc12`: the AC50 is 31.6 µM [rising, single point] under setting [2] and 35.5 µM [rising, single point] under setting [1]. In the case of `O=C(Cn1ccc2ccccc2c1=O)Nc1ccc2c(c1)OCO2`, the AC50 under setting [1] was 17.8 µM [rising, partial curve, poor fit]. On the same count and under the same terms, the figure for `CN(C)S(=O)(=O)c1ccc(S(=O)(=O)Nc2ccc3c(c2)oc2ccccc23)cc1` is 28.2 µM [rising, single point]. As to `Cc1cc(C)n2nc(C(=O)Nc3ccc4c(c3)CCC4)nc2n1`, under setting [2], the AC50 is 35.5 µM [falling, partial curve].

On to `Cc1cc(NC(=O)/C=C/C(=O)N(CC(=O)NC2CCCC2)c2cccc3ccccc23)no1`, for which the AC50 under setting [2] was 15.8 µM [falling, single point] and the AC50 under setting [1] is 35.5 µM [falling, single point]. For the compound `O=C1c2ccccc2C(=O)c2c1ccc1c(=O)n(C3CCCCC3)[nH]c21`, the half-maximal activity concentration (AC50) under setting [1] was 7.94 µM [rising, partial curve]. Still for that read-out and setting: the figure for `COc1ccc(NC(=O)/C(C#N)=C\C=C\c2ccco2)cc1` is 11.2 µM [rising, single point]; for `CCS(=O)(=O)N1CCN(c2nc(-c3ccccc3)cs2)CC1` it is 4.47 µM [rising, full curve, poor fit]. For `CCOc1ccc(C(c2c(O)cc(C)n(CCOC)c2=O)N2CCN(c3ccccc3F)CC2)cc1` (centres undefined), the half-maximal activity concentration (AC50) is 0.355 µM [rising, partial curve, poor fit] under setting [2] and 0.158 µM [rising, full curve, poor fit] under setting [1]. On to `Cc1ccccc1N1C(=O)CN(Cc2sccc2C)C1=S`, for which the AC50 under setting [2] was 35.5 µM [rising, single point] and the AC50 under setting [1] is 35.5 µM [rising, single point]. `COc1ccc(-c2cc(C(F)F)n3ncc(C(=O)N4CCN5CCCC5C4)c3n2)cc1` (centres undefined): the AC50 reads like this: under setting [2], 12.6 µM [rising, single point]; under setting [1], 11.2 µM [rising, partial curve]. For the compound `CC(C)c1ccc(S(=O)(=O)c2cnc(SCC(=O)Nc3cccc(C(F)(F)F)c3)nc2N)cc1`, the AC50 under setting [1] was 14.1 µM [rising, single point]. Same read-out and setting: the result for `c1nc(NC2CCNCC2)c2cc(-c3ccc4c(c3)OCO4)ccc2n1` reads 31.6 µM [rising, single point]. On the same count and under the same terms, the result for `Cc1ccccc1OCc1nnc(SCC(=O)N2c3ccccc3Sc3ccc(Cl)cc32)o1` reads 0.282 µM [rising, full curve, poor fit]. For `COc1ccccc1CN(Cc1nc2ccccc2c(=O)[nH]1)S(=O)(=O)c1ccc(C)cc1`, the AC50 is 14.1 µM [rising, single point] under setting [2] and 20 µM [rising, single point] under setting [1]. For `C=C(C)COc1ccc2c3c(c(=O)oc2c1OCC(=C)C)CCC3`, the concentration at half-maximal activity (AC50) is 31.6 µM [rising, single point] under setting [2] and 31.6 µM [rising, single point] under setting [1]. As to `CC(C)(C#N)N([O-])C=C[N+](=O)C(C)(C)C#N`, the concentration at half-maximal activity (AC50) under setting [2] is 17.8 µM [rising, partial curve].

The record behind these values is PubChem BioAssay AID1487 (National Center for Advancing Translational Sciences (NCATS), 2009).
